# In EP1949899A1, “Metal salophen complexes use in prevention and treatment of cancer” (Freie Universität Berlin, priority 2007, dated 2008):
# Columns and labels:
# Format in all cases: cell-based
# [1] = system: LNCaP-FGC-cells; experiment: Time dependent test (crystal violet assay) on LNCaP-FGC-cells
# Procedure: The time dependent tests were performed according to Reile, H. et al.: "Computerized Determination of Growth Kinetic Curves and Doubling Times from Cells in Microculture", Analytical Biochemistry, 1990, 187 (2): 262-267; Bernhardt, G. et al.: "Standardized kinetic microassay to quantifiy differential chemosensitivity on the basis of proliferative activity", Journal of Research Clin. Oncol., 1992, 118: 35-43 and Gust, R. et al.: "Development of Cobalt(3,4-diarylsalen) Complexes as Tumor Therapeutics", Journal of Medicinal Chemistry, 2004, 47 (24): 5837-5846.
# Determining the cell mass in the crystal violet assay the interpretation of the received values was the following: […]
# [2] = system: MCF-7 cells; experiment: Time dependent test (crystal violet assay) on MCF-7 cells
# [3] = system: MDA-MB-231 cells; experiment: Time dependent test (crystal violet assay) on MDA-MB-231 cells
# [4] = system: HeLa cells; experiment: Time dependent test (crystal violet assay) on HeLa cells
SMILES,time of minimum T/Ccorr- resp. τ-value ([1]; 0.1 µM) [h],time of minimum T/Ccorr- resp. τ-value ([1]; 0.5 µM) [h],time of minimum T/Ccorr- resp. τ-value ([1]; 1 µM) [h],"time of minimum T/Ccorr- resp. τ-value ([2]; MCF-7, 0.05 µM) [h]","time of minimum T/Ccorr- resp. τ-value ([2]; MCF-7, 0.1 µM) [h]","time of minimum T/Ccorr- resp. τ-value ([2]; MCF-7, 0.5 µM) [h]","time of minimum T/Ccorr- resp. τ-value ([2]; MCF-7, 1 µM) [h]","time of minimum T/Ccorr- resp. τ-value ([3]; MDA-MB-231, 0.05 µM) [h]","time of minimum T/Ccorr- resp. τ-value ([3]; MDA-MB-231, 0.1 µM) [h]","time of minimum T/Ccorr- resp. τ-value ([3]; MDA-MB-231, 0.5 µM) [h]","time of minimum T/Ccorr- resp. τ-value ([3]; MDA-MB-231, 1 µM) [h]",time of minimum T/Ccorr- resp. τ-value ([4]; 0.1 µM) [h],time of minimum T/Ccorr- resp. τ-value ([4]; 0.5 µM) [h],time of minimum T/Ccorr- resp. τ-value ([4]; 1 µM) [h],time of minimum T/Ccorr- resp. τ-value ([1]; 5 µM) [h]
"[Fe+2].[O-]c1ccccc1C=Nc1ccccc1N=Cc1ccccc1[O-] [Fe(II)salophen, [N,N'-Bis(salicylidene)phenylene-1,2-diamine]-iron(II)]",69,95,160,71,71,71,138,49,71,47,47,,,,
"[Cl-].[Fe+3].[O-]c1ccccc1C=Nc1ccccc1N=Cc1ccccc1[O-] [Fe(III)salophen chloride, [N,N'-Bis(salicylidene)phenylene-1,2-diamine]-iron(III)-chloride]",71,90,90,166,72,72,166,53,69,122,53,51,51,77,
N.N.O=C([O-])C1(C(=O)[O-])CCC1.[Pt+2] [Carboplatin],,73,46,,,,,,,,,,,,73
"N.N.[Cl][Pt][Cl] [cisplatin, reference compound]",,98,124,,,172,172,,,72,72,,72,91,124
O=C1[O][Pt]2([NH][C@@H]3CCCC[C@H]3[NH]2)[O]C1=O [Oxaliplatin],,124,124,,,,,,,,,,,,98
